1 substance from doi:10.1101/2024.09.19.613951 can be followed below.

Amino acid sequences for entries named in this document (tags omitted). A change or cut given only in a name is not applied to a line headed by its entry.
UniProt Q923T9: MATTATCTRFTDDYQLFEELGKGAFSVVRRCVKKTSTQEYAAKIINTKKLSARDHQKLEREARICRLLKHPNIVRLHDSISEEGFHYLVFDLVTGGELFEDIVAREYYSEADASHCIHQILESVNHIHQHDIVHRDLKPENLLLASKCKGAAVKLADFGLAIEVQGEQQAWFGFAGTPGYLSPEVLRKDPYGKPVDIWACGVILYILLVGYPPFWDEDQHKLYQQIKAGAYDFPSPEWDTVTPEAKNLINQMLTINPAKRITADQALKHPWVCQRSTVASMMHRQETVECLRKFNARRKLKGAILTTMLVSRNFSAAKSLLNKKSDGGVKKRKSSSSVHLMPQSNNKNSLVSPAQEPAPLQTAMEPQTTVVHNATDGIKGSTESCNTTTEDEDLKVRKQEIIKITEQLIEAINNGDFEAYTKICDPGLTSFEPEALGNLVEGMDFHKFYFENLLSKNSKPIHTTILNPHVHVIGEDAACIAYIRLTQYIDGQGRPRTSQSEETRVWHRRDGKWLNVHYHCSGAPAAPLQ
UniProt P28652: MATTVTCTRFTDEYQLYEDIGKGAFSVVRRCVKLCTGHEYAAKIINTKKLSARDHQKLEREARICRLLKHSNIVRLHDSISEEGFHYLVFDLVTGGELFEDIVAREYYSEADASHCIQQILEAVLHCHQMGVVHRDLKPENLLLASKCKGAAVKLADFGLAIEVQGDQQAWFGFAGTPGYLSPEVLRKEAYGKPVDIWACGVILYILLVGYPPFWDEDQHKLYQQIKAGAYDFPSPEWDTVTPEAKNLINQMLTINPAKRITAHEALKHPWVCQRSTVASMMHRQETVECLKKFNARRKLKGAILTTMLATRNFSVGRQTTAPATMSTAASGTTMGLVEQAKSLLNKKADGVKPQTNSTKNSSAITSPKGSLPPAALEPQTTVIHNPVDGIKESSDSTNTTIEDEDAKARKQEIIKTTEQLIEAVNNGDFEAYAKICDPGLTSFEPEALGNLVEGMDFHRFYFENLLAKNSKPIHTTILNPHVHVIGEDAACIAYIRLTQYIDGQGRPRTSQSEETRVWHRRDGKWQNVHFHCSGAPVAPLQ

Results are given in words; binding and its absence hold for the method and conditions named. Binding seen in cells or lysates may run through a third protein. Some entries that bind do so weakly or less than the wild type.

The target in test [1] is γCaMKIIQ285A (mouse (endogenous in dHPC)) (UniProt Q923T9). Put plainly: co-IP; dHPC tissue of wildtype vs. γCaMKIIQ285A mutant mice; western blotting of co-IPs for βCaMKII bound to γCaMKII; levels normalized to inputs (1%); n = 5/genotype.
Test [2] concerns the target γCaMKII (Camk2g), wildtype (mouse (endogenous in dHPC)) (UniProt Q923T9). The test is described as above.

Turning to “βCaMKII (Camk2b) (from UniProt P28652 1-542)”, the binding entry in test [1] and in test [2] was “binds” throughout.
